Test results taken from PMC7542355.
These are yes or no findings as the source states them, for the method shown. Binding seen in cells or lysates may run through a third protein. Binding calls can cover weak binding; strength is not graded here.

Protein sequences, listed by entry. Tags and fused reporters are not part of them. Lines headed by an entry give the natural chain unless they say otherwise; changes in a name come on top.
UniProt O77310: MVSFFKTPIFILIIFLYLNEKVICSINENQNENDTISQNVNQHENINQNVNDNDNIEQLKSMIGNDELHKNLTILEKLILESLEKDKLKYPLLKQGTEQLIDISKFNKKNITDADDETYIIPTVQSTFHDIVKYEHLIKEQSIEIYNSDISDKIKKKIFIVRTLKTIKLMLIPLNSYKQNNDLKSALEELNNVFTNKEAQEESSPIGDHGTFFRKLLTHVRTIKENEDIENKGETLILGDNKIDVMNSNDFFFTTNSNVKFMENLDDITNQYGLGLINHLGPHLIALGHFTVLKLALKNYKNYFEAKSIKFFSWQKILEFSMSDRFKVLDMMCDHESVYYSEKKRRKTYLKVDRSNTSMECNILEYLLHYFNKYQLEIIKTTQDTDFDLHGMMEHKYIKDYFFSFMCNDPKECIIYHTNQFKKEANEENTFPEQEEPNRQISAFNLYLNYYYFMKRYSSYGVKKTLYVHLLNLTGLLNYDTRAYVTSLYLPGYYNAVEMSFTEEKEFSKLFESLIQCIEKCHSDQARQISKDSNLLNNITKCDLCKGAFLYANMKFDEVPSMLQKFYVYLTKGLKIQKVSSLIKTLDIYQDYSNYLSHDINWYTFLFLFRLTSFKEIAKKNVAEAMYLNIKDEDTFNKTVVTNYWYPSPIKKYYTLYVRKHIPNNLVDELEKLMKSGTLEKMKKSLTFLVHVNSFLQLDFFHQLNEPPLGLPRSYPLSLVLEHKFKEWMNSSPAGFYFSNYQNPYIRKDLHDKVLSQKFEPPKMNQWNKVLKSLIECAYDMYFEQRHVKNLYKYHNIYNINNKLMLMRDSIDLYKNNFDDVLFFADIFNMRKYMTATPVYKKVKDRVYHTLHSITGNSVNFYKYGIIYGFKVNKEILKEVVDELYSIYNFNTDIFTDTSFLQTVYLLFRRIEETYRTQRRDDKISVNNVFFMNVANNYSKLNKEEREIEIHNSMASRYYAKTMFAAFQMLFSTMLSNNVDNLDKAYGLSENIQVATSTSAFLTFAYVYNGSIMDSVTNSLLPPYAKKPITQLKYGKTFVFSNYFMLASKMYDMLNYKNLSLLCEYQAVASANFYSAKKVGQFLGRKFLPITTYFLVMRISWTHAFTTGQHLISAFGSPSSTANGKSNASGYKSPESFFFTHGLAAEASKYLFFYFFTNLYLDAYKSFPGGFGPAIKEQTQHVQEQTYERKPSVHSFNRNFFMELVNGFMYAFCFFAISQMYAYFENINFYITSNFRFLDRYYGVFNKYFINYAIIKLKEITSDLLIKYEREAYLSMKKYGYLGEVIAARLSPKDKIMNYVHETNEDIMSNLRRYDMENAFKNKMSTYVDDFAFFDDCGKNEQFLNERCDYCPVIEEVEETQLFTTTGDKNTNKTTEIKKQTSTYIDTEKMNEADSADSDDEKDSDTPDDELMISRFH

Target: T1, Rhoptry protein RhopH3 (Plasmodium falciparum (endogenous in 3D7 parasites)) (UniProt Q8I395)
T1 sequence: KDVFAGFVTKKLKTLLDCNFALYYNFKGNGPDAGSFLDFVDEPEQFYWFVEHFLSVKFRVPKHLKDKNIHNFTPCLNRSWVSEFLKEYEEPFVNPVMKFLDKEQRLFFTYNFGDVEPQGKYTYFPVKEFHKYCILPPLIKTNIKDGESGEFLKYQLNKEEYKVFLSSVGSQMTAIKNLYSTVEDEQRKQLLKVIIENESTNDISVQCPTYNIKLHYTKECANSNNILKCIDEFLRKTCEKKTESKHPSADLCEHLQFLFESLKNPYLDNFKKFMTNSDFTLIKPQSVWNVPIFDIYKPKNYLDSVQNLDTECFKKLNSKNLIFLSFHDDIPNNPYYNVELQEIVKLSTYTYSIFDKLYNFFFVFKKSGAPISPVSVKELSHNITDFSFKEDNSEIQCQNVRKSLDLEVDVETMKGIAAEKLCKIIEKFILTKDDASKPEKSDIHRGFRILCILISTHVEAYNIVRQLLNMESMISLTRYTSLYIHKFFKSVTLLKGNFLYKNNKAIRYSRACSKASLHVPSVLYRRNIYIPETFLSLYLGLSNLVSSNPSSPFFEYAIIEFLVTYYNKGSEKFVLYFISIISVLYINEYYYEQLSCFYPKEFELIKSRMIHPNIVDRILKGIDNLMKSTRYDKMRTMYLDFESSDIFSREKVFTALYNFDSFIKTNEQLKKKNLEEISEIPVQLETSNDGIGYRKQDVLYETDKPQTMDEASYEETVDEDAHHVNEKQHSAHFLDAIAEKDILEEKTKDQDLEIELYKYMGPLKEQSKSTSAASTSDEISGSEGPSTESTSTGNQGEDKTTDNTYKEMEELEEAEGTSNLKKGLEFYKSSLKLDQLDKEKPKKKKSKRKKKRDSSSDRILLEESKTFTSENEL
Experiment: co-IP; RhopH3 immunoprecipitated from an equal amount of 3D7 or R3_S804A schizont lysate; Western blot with Clag3.1 antibody

Clag3.1 (from UniProt O77310)
binding: binds
